# PubChem BioAssay AID1224830 – NIAID, 2016
# Purpose: 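Genes whose knock-down alters the TNF-alpha reporter response to LPS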 (primary screen)
# System: human THP-1 monocytic leukaemia cells, TNF dual-luciferase reporter clone, PMA-differentiated to macrophage-like cells
# Reagents: siRNA pool against human genes, 50 nM
# Duration: LPS for 4 h, given about 3 days after siRNA transfection
# Conditions: bacterial LPS (TLR4 ligand), 10 ng/ml
# Read-out: 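TNF firefly reporter luminescence divided by renilla, normalised to the plate median, then turned into a robust z-score for each replicate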
# Scale: TNF reporter robust z-score: higher = stronger TNF reporter response to LPS
# Call rule: 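Each well counts as active if its z-score is over 2.8 or under -1.5; controls are left without a call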
# Shown is a random part of about 18,000 reagents. About 2,900 of all reagents (16%) were called active. 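Calls are made per well; low scores hint the gene aids the LPS response, high scores that it dampens it.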 Unmarked entries are inactive. Repeated entries: four replicate wells of each siRNA pool.
The first 14 records, to show the layout:
gene symbol,TNF reporter robust z-score
SLC37A2,-0.77
SLC37A2,-0.26
SLC37A2,-0.55
SLC37A2,0.33
AMY1C,0.8
AMY1C,0.34
AMY1C,1.28
AMY1C,1.07
TEX35,-0.66
TEX35,-0.26
TEX35,-1.28
TEX35,-0.35
SCN4A,-0.64
SCN4A,-0.02

The listing, repeating the preview:
gene symbol,TNF reporter robust z-score
SLC37A2,-0.77
SLC37A2,-0.26
SLC37A2,-0.55
SLC37A2,0.33
AMY1C,0.8
AMY1C,0.34
AMY1C,1.28
AMY1C,1.07
TEX35,-0.66
TEX35,-0.26
TEX35,-1.28
TEX35,-0.35
SCN4A,-0.64
SCN4A,-0.02
SCN4A,-0.37
SCN4A,0.55
BICC1,-0.34
BICC1,-1.04
BICC1,-0.31
BICC1,0.17
CD52,-2 (active)
CD52,-1.78 (active)
CD52,-1.85 (active)
CD52,-1.75 (active)
SOS2,-0.01
SOS2,0.51
SOS2,-0.81
SOS2,0.99
ENPP1,0
ENPP1,-0.03
ENPP1,-0.62
ENPP1,0.25
PPIL3,-1.09
PPIL3,-1.36
PPIL3,-1.16
PPIL3,-1.12
ZNF816,2.56
ZNF816,1.39
ZNF816,1.07
ZNF816,1.09
CUX1,-0.67
CUX1,-1.32
CUX1,-0.42
CUX1,-1.08
ZNRF1,-0.68
ZNRF1,1.32
ZNRF1,-0.87
ZNRF1,-0.54
IFITM1,-0.7
IFITM1,-0.15
IFITM1,-0.59
IFITM1,-0.83
TRIP13,-0.13
TRIP13,-0.27
TRIP13,-1.03
TRIP13,-0.81
ADA2,-0.38
ADA2,0.22
ADA2,0.19
ADA2,-0.46
SYNGR4,-1.25
SYNGR4,-1.3
SYNGR4,-0.77
SYNGR4,-1.09
TUFT1,0.37
TUFT1,0.51
TUFT1,0.63
TUFT1,-0.6
ABCC12,-0.13
ABCC12,-0.73
ABCC12,-0.45
ABCC12,0.74
HECW2,-0.74
HECW2,-0.9
HECW2,-0.32
HECW2,-0.58
SPPL2B,-1.63 (active)
SPPL2B,-0.7
SPPL2B,0.4
SPPL2B,1.26
CSNK1D,0.66
CSNK1D,0.31
CSNK1D,-0.28
CSNK1D,2.56
ARG2,1.01
ARG2,-0.06
ARG2,1.4
ARG2,0.14
QDPR,0.87
QDPR,1.46
QDPR,1.34
QDPR,2.07
DLX6,-0.1
DLX6,-0.4
DLX6,1.16
DLX6,-0.09
ACOXL,0.6
ACOXL,1.11
ACOXL,0.76
ACOXL,1.89
TMOD1,1.04
TMOD1,-0.25
TMOD1,-0.55
TMOD1,0.33
SLC24A1,-0.04
SLC24A1,0.18
SLC24A1,0.3
SLC24A1,0.37
ELSPBP1,-0.72
ELSPBP1,-0.22
ELSPBP1,-0.92
ELSPBP1,0
